In US9193965B2, “Acetolactate synthase having 2-ketoisovalerate decarboxylase activity and uses thereof” (The Regents of the University of California, priority 2010, dated 2015):
Where a chain is given by its changes, count along the chain named. At least one compound was matched to its structure with a doubt left.

Legend:
[1] = molecular target: T1, Bacillus subtilis acetolactate synthase AlsS variant Q487A, SEQ ID NO: 10 (Bacillus subtilis, UniProt Q04789, Q486A); experiment: Als enzyme activity (acetolactate synthase, pyruvate as substrate); settings: pH 7.0, 37° C., 0.1 mM TPP, ± standard deviation
T1 sequence (Q04789 with tags, fused parts or gaps Q486A): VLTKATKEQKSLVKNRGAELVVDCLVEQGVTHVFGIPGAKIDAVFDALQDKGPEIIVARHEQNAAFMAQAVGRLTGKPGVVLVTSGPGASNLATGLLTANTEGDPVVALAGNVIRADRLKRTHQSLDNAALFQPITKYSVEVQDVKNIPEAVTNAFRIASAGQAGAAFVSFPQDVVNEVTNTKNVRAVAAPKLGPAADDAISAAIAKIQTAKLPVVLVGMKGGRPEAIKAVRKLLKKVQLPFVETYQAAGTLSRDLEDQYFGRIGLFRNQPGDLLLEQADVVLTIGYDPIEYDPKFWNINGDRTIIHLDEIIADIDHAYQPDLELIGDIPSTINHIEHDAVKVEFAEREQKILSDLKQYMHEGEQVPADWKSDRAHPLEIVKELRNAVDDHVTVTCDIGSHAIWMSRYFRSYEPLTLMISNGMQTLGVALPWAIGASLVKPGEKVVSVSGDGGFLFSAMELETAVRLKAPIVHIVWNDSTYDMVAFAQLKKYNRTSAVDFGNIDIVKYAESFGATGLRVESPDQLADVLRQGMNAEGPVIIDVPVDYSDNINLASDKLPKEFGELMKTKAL

[2] = molecular target: T2, Bacillus subtilis acetolactate synthase AlsS variant Q487S (Bacillus subtilis, UniProt Q04789, Q486S); experiment: as above; settings: pH 7.0, 37° C., 0.1 mM TPP, ± standard deviation
T2 sequence (Q04789 with tags, fused parts or gaps Q486S): T1 sequence (Q04789 with tags, fused parts or gaps Q486A) with A487S

[3] = molecular target: T3, Bacillus subtilis acetolactate synthase AlsS, wild type (Q at residue 487), SEQ ID NO: 2 (Bacillus subtilis, UniProt Q04789); experiment: as above; settings: pH 7.0, 37° C., 0.1 mM TPP, ± standard deviation
T3 sequence (Q04789 with tags, fused parts or gaps): T1 sequence (Q04789 with tags, fused parts or gaps Q486A) with A487Q

[4] = molecular target: T4, Bacillus subtilis acetolactate synthase AlsS variant Q487G (Bacillus subtilis, UniProt Q04789, Q486G); experiment: as above; settings: pH 7.0, 37° C., 0.1 mM TPP, ± standard deviation
T4 sequence (Q04789 with tags, fused parts or gaps Q486G): T1 sequence (Q04789 with tags, fused parts or gaps Q486A) with A487G

[5] = molecular target: T5, Bacillus subtilis acetolactate synthase AlsS variant Q487I (Bacillus subtilis, UniProt Q04789, Q486I); experiment: Kdc activity assay (decarboxylation of KIV); type: biochemical; settings: pH 7.0, 37° C., 1 h, 0.1 mM TPP, ± standard deviation
T5 construct: the wild-type and alsS variants were amplified with primers A297 and A298; His-tag (N); made in house; host or cells: E. coli BL21 Star (DE3)

[6] = molecular target: T1, Bacillus subtilis acetolactate synthase AlsS variant Q487A, SEQ ID NO: 10; experiment: Kdc activity assay (decarboxylation of KIV); type: biochemical; parameters: the wild-type and alsS variants were amplified with primers A297 and A298; His-tag (N); made in house; host or cells: E. coli BL21 Star (DE3); settings: pH 7.0, 37° C., 1 h, 0.1 mM TPP, ± standard deviation
[7] = molecular target: T3, Bacillus subtilis acetolactate synthase AlsS, wild type (Q at residue 487), SEQ ID NO: 2; experiment: Kdc activity assay (decarboxylation of KIV); type: biochemical; parameters: the wild-type and alsS variants were amplified with primers A297 and A298; His-tag (N); made in house; host or cells: E. coli BL21 Star (DE3)
[8] = molecular target: T6, Bacillus subtilis acetolactate synthase AlsS variant Q487L (Bacillus subtilis, UniProt Q04789, Q486L); experiment: Kdc activity assay (decarboxylation of KIV); type: biochemical; settings: pH 7.0, 37° C., 1 h, 0.1 mM TPP, ± standard deviation
T6 construct: the wild-type and alsS variants were amplified with primers A297 and A298; His-tag (N); made in house; host or cells: E. coli BL21 Star (DE3)

[9] = molecular target: T2, Bacillus subtilis acetolactate synthase AlsS variant Q487S; experiment: Kdc activity assay (decarboxylation of KIV); type: biochemical; parameters: the wild-type and alsS variants were amplified with primers A297 and A298; His-tag (N); made in house; host or cells: E. coli BL21 Star (DE3)
[10] = molecular target: T4, Bacillus subtilis acetolactate synthase AlsS variant Q487G; experiment: Kdc activity assay (decarboxylation of KIV); type: biochemical; parameters: the wild-type and alsS variants were amplified with primers A297 and A298; His-tag (N); made in house; host or cells: E. coli BL21 Star (DE3)
[11] = wild type, pH 7.0, 37° C., 1 h, 0.1 mM TPP, ± standard deviation
[12] = pH 7.0, 37° C., 1 h, 0.1 mM TPP, ± standard deviation

SMILES	kcat/Km ratio (pyruvate) [1]	kcat/Km ratio (pyruvate) [2]	kcat/Km ratio (pyruvate) [3]	kcat/Km ratio (pyruvate) [4]	kcat (KIV) [5]	kcat/Km ratio (KIV) [5]	kcat (KIV) [6]	kcat/Km ratio (KIV) [6]	kcat (KIV) [7, 11]	kcat/Km ratio (KIV) [7, 11]	ratio of Km for KIV to Km for pyruvate ([7]; wild-type enzyme)	kcat (KIV) [8]	kcat/Km ratio (KIV) [8]	ratio of Km for KIV to Km for pyruvate [9]	kcat (KIV) [9, 12]	kcat/Km ratio (KIV) [9, 12]	ratio of Km for KIV to Km for pyruvate [10]	kcat (KIV) [10, 12]	kcat/Km ratio (KIV) [10, 12]
CC(=O)C(=O)O [Pyruvate, pyruvate]	6.7 ± 1.0	10 ± 7.7	8.9 ± 1.1	6.9 ± 3.6	–	–	–	–	–	–	–	–	–	–	–	–	–	–	–
CC(C)C(=O)C(=O)O [KIV, 2-ketoisovalerate]	–	–	–	–	4.8 ± 0.5 s⁻¹	0.01 ± 0.002	1.1 ± 0.5 s⁻¹	0.006 ± 0.003	8.9 ± 1.2 s⁻¹	0.03 ± 0.005	20±2.9	5.4 ± 0.9 s⁻¹	0.02 ± 0.003	140±79	0.8 ± 0.3 s⁻¹	0.005 ± 0.002	109±30	0.8 ± 0.2 s⁻¹	0.005 ± 0.001
